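A cell-based FRET test of anthrax lethal toxin entry, tracked through the 460 nm emission signal; the cell line is not named here.
Each compound was tested as a concentration series from about 0.0005 to 40 µM.
The number is the fitted AC50 of the 460 nm signal alone; lower values mean a more potent effect. A falling signal goes with compounds filed as inhibitors or cytotoxic, a rising one with activators or fluorescent compounds (inferred from the filed classes).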

Values are in µM.
Common to all entries: measured here: 460 nm channel.
This is a side read-out of the assay, for part of the compounds, not drawn at random.
A potency from a partial, single-point or poor curve is only a rough figure.
The first word of each remark tells which way the curve ran; it can be opposite to the aim of the assay.

| SMILES | AC50 (µM) | curve |
|---|---|---|
| `Cc1nc(N2C(=O)C(=O)/C(=C(/O)c3ccccc3)C2c2ccco2)sc1C` (centres unmarked) | 31.62 | rising, single point |
| `Cc1noc(C)c1C(=O)N1CCC2(CC1)CN(c1cccc(-c3ccccc3)c1)C2` | 0.07943 | falling, full curve, poor fit |
| `O=C(NCC1CC1)[C@H]1C[C@@H]1[C@H](NP(=O)(c1ccccc1)c1ccccc1)c1ccccc1` | 10 | rising, single point |
| `COc1cc(-c2nnc(SCc3c(F)cccc3Cl)o2)cc(OC)c1OC` | 31.62 | falling, single point |
| `COC(=O)c1ccc2c(=O)n(CCCN3CCCC3=O)c(=S)[nH]c2c1` | 12.59 | rising, partial curve |
| `CN1CC=C2C(C#N)=C(N)C(C#N)(C#N)C(Cc3ccccc3)C2C1` (centres unmarked) | 25.12 | rising, single point |
| `O=S(=O)(NCC1CCCO1)c1ccc(Oc2ccccc2)cc1` (centres unmarked) | 3.981 | rising, single point |
| `Cc1nnc2sc(-c3cccc4ccccc34)nn12` | 6.31 | rising, partial curve |
| `O=C(c1ccccc1Cl)N1CCC(c2nc3c(nnn3Cc3ccco3)c(=O)[nH]2)CC1` | 3.981 | rising, partial curve |
| `CC(=O)OC1COC(n2ccc3ccccc32)C(OC(C)=O)C1OC(C)=O` (centres unmarked) | 5.012 | rising, single point |
| `COc1ncc2nc(-c3cccs3)c(=O)n(CCc3ccccc3)c2n1` | 10 | rising, partial curve, poor fit |
| `COCCn1c(=O)c(-c2ccc(F)cc2)nc2cncnc21` | 3.162 | falling, partial curve |
| `COc1cc2c(cc1OC)C1Cc3ccc(OC)c(OC)c3CN1CC2` (centres unmarked) | 3.981 | rising, partial curve |
| `CC(=O)OC[C@@H]1O[C@@H](O/N=C2/C[C@@H](O)[C@@H](O)[C@@H]3[C@@H]4C(=O)N(Cc5ccc6c(c5)OCO6)C(=O)[C@H]4CC[C@H]23)[C@H](OC(C)=O)[C@H](OC(C)=O)[C@@H]1OC(C)=O` | 0.01995 | falling, full curve, poor fit |
| `O=C(Nc1ccccc1NC(=O)NC1CCCCC1)NC1CCCCC1` | 0.1585 | falling, full curve, poor fit |
| `CCOc1ccccc1C1SCC(=O)Nc2c1c(=O)[nH]n2C(CC)CC` (centres unmarked) | 0.1259 | rising, full curve, poor fit |
| `O=c1cc(NCc2ccco2)[nH]c(=O)n1-c1ccc(Br)cc1` | 10 | falling, partial curve, poor fit |
| `Cc1nc2cc(F)ccc2n1C1CCN(Cc2nnnn2CCc2ccccc2)CC1` | 25.12 | rising, single point |
| `COc1cc(NC(=O)c2cc(CC(C)C)on2)c(OC)cc1Cl` | 3.162 | falling, full curve, poor fit |
| `CC1(C)CC(=O)C(C=NCc2ccc3c(c2)OCO3)=C(O)C1` | 19.95 | rising, partial curve |
| `Cc1ccc2nc3c(cc(C(N)=S)c(=N)n3CCCOC(C)C)c(=O)n2c1` | 2.512 | rising, full curve |
| `CCOC(=O)c1cccc(NC(=O)CSc2nnc(COc3ccccc3)n2CC)c1` | 12.59 | falling, partial curve, poor fit |
| `O=C1/C(=C/c2ccccc2)[C@@H](NC2CCCCC2)c2ccccc21` | 5.012 | falling, single point |
| `CCOc1ccc(NC(=O)c2ccc(F)c(S(=O)(=O)N3CCN(c4ccccn4)CC3)c2)cc1` | 0.3162 | rising, full curve |
| `CC1CCCCN1S(=O)(=O)c1ccc(NC(=O)c2cccs2)cc1` (centres unmarked) | 10 | falling, partial curve |
| `COC(=O)c1ccc(COc2ccc(C3C4=C(CCCC4=O)Nc4onc(C)c43)cc2)cc1` (centres unmarked) | 0.01995 | rising, full curve, poor fit |
| `O=S(=O)(/N=C(/Nc1cc(N2CCOCC2)ncn1)c1ccc(F)cc1)c1ccccc1` | 12.59 | rising, single point |
| `COc1ccc(C(=O)N2CCC3(CC2)CN(c2cccc(-c4ccccc4)c2)C3)cc1` | 31.62 | falling, single point |
| `CCC(=O)N1CCN(c2ccccc2NC(=O)c2cccc(C)c2)CC1` | 12.59 | rising, partial curve, poor fit |
| `CCN1CCCC1CNC(=O)c1cc2c(=O)n(C)c3ccccc3c2n1C` (centres unmarked) | 10 | falling, partial curve |
| `N#CCCn1c(=O)c(-c2cccs2)nc2cnc(Oc3cccc(Cl)c3)nc21` | 1.995 | rising, partial curve |
| `Cc1ccccc1-c1ccc2ncnc(N(C)Cc3ccco3)c2c1` | 2.512 | falling, full curve |
| `O=C(Nc1ccc(N2CCCC2)c(Cl)c1)c1ccc(Br)o1` | 10 | falling, partial curve |
| `Cc1ccc(NC(=O)CSc2nnc([C@@H](N)Cc3c[nH]c4ccccc34)o2)c(C)c1` | 3.162 | falling, partial curve |
| `CCOC(=O)CSc1nc2c(c(-c3ccc(C)o3)c1C#N)CCCC2` | 15.85 | falling, partial curve |
| `COc1ccc(C(=O)N2CCC3(CCCN(C(=O)Nc4cccc(F)c4)C3)CC2)cc1` | 12.59 | rising, single point |
| `CN(C)S(=O)(=O)c1ccc(C(=O)OCc2ccc(C#N)cc2)cc1` | 3.981 | falling, single point |
| `Cn1c(SCC(=O)NCc2ccco2)nnc1-c1ccc(S(=O)(=O)N2CCOCC2)cc1` | 15.85 | rising, partial curve |
| `COc1cc(C)c(Cl)cc1S(=O)(=O)NCc1ccncc1` | 0.03162 | rising, full curve, poor fit |
| `CSc1nc(NC(C)(C)C)nc(N2CCOCC2)n1` | 0.1259 | falling, full curve |
| `O=C(Cn1ncc2c1-c1ccccc1OC2)Nc1ccc(S(=O)(=O)N2CCCCC2)cc1` | 12.59 | falling, partial curve |
| `CC(C)N(Cc1nnc(-c2ccccc2Cl)o1)C(=O)c1cccc(C#N)c1` | 25.12 | rising, partial curve, poor fit |
| `CCc1c(C)[nH]c(=S)c(C#N)c1C` | 0.007943 | falling, full curve, poor fit |
| `COc1ccc(-c2cn3c4c(sc3n2)CCCC4)cc1` | 6.31 | falling, partial curve |
| `CCC1CCCCN1CCCNC(=O)C1CCN(S(=O)(=O)N2CCCCC2)CC1` (centres unmarked) | 0.3162 | falling, partial curve |
| `Cc1cc(=O)oc2cc3c(cc12)OCCN3` | 10 | rising, partial curve |
| `COc1cc(C2CC(=O)N3CN(Cc4ccco4)CSC3=C2C#N)ccc1OCc1ccccc1` (centres unmarked) | 12.59 | falling, partial curve |
| `COc1ccc(-n2c(Cc3cccn3C)nnc2SCC(=O)Nc2cccc(F)c2)cc1` | 31.62 | falling, single point |
| `CCCOc1ccccc1NC(=O)c1c(-c2ccccc2)noc1C` | 7.943 | falling, partial curve |
| `COc1ccc(CC(=O)N2CCN(c3ccccn3)CC2)cc1OC` | 0.1995 | rising, full curve, poor fit |
| `CCc1n[nH]c(=O)n1Cn1c(CC)n[nH]c1=O` | 0.03981 | rising, full curve, poor fit |

5 of the entries, repeated:

SMILES,AC50 (µM),curve
O=S(=O)(/N=C(/Nc1cc(N2CCOCC2)ncn1)c1ccc(F)cc1)c1ccccc1,12.59,"rising, single point"
CN(C)S(=O)(=O)c1ccc(C(=O)OCc2ccc(C#N)cc2)cc1,3.981,"falling, single point"
CC1CCCCN1S(=O)(=O)c1ccc(NC(=O)c2cccs2)cc1 (centres unmarked),10,"falling, partial curve"
CCC(=O)N1CCN(c2ccccc2NC(=O)c2cccc(C)c2)CC1,12.59,"rising, partial curve, poor fit"
CCc1c(C)[nH]c(=S)c(C#N)c1C,0.007943,"falling, full curve, poor fit"

The results are deposited in PubChem (AID912; NCATS, 2007).